Source: the supplement of paper PMC6143611
Structures can show the parent of a compound that is named as a salt. ± gives the uncertainty stated by the source. The list shows a part of the results. Part of the spread comes from offsets between plates or batches.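 A heat-shock-induced fluorescent stripe was set in larval rod outer segments at 6 dpf. Shedding distance ran from stripe to outer segment tip, measured by confocal stacks in about three fish per compound. Controls: 0.2% DMSO vehicle. Flagged compounds showed ≥20% change from same-week control, p < 0.001 (Dunnett test on mixed-effects models).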

What was measured:
[1] = system: Danio rerio larva rod photoreceptor outer segment; assay: rod outer segment growth distance Dg, difference from same-week DMSO control mean; higher = more outer segment growth; details: 20 µM; treatment time: 4 days (6-10 dpf)
[2] = system: Danio rerio larva rod photoreceptor outer segment; assay: rod outer segment shedding distance Ds, difference from same-week DMSO control mean; higher = less outer segment shedding; details: 20 µM; treatment time: 4 days (6-10 dpf)

Row | Structure (SMILES) | rod outer segment growth distance Dg [1] | rod outer segment shedding distance Ds [2]
1 | COc1c(O)cc2c(c1O)[C@@H]1O[C@H](CO)[C@@H](O)[C@H](O)[C@H]1OC2=O [Bergenin] | -0.4 ± 0.34 um | 0.06 ± 0.3 um
2 | Cc1ccc(S(=O)(=O)n2c(N)nc3ccccc32)cc1 [ML130 (Nodinitib-1)] | -1.57 ± 0.26 um | -0.83 ± 0.17 um
3 | CC(C)NCC(O)c1ccc(O)c(O)c1 (stereo unspecified) [Isoprenaline HCl] | 0.23 ± 0.27 um | -0.6 ± 0.14 um
4 | Nc1nc(Nc2ccc(S(N)(=O)=O)cc2)nn1C(=O)c1c(F)cccc1F | -0.68 ± 0.21 um | 0.12 ± 0.26 um
5 | O=c1[nH]c(=O)n([C@H]2C[C@H](O)[C@@H](CO)O2)cc1F [Floxuridine] | 1.46 ± 0.18 um | -0.61 ± 0.2 um
6 | O=[N+]([O-])c1cn2c(n1)OC[C@@H](OCc1ccc(OC(F)(F)F)cc1)C2 | -0.64 ± 0.33 um | 0.22 ± 0.26 um
7 | CCCCCCCCCCC[C@@H](C[C@@H]1OC(=O)[C@H]1CCCCCC)OC(=O)[C@H](CC(C)C)NC=O [Orlistat] | -0.68 ± 0.28 um | -0.15 ± 0.17 um
8 | CCCCC[C@H](O)/C=C/[C@H]1[C@H](O)CC(=O)[C@@H]1CCCCCCC(=O)O [Alprostadil] | -1.06 ± 0.18 um | 0.88 ± 0.21 um
9 | Cn1ccnc1S [Methimazole] | 0 ± 0.18 um | 0.22 ± 0.14 um
10 | CCn1cc(-c2ccnc3[nH]c(-c4cccc(CN(C)C)c4)cc23)c(-c2ccc(NC(=O)N(C)C)cc2)n1 | -0.61 ± 0.17 um | -0.8 ± 0.11 um
11 | Cc1noc(NS(=O)(=O)c2ccc(N)cc2)c1C [Sulfisoxazole] | 0.08 ± 0.24 um | -1.57 ± 0.28 um
12 | CO/N=C(\C(=O)N[C@@H]1C(=O)N2C(C(=O)OCOC(=O)C(C)(C)C)=C(/C=C\c3scnc3C)CS[C@H]12)c1csc(N)n1 [Cefditoren Pivoxil] | -0.69 ± 0.32 um | -1.06 ± 0.32 um
13 | O=C1C(=O)N(Cc2ccc(Cl)c(Cl)c2)c2ccccc21 [Apoptosis Activator 2] | -1.18 ± 0.21 um | -0.84 ± 0.14 um
14 | NC(=O)Cc1cccc(C(=O)c2ccccc2)c1N [Nepafenac] | 0.18 ± 0.23 um | -0.13 ± 0.2 um
15 | COc1ccc(CCC(=O)Nc2nc3ccc(Cl)cc3s2)cc1OC | -1.15 ± 0.2 um | -0.77 ± 0.26 um
16 | COc1ccc([C@@H]2CC(=O)c3c(O)cc(O)cc3O2)cc1O [Hesperetin] | -0.55 ± 0.25 um | 0.29 ± 0.27 um
17 | CCOC(=O)C1=C[C@@H](OC(CC)CC)[C@H](NC(C)=O)[C@@H](N)C1 [Oseltamivir phosphate] | -0.33 ± 0.21 um | -0.58 ± 0.14 um
18 | O=C1[C@H](Cc2ccc(O)cc2)N2C(=O)CCN(C(=O)NCc3ccccc3)[C@H]2CN1Cc1cccc2ccccc12 | -0.62 ± 0.16 um | -0.78 ± 0.12 um
